# Assay results reported in the supplement of paper PMC5407854, “Inhibitor of ppGalNAc-T3-mediated O-glycosylation blocks cancer cell invasiveness and lowers FGF23 levels” (eLife, 2017).
# Over roughly 1,700 compounds, “T3 sensor activation Q score (MG/GFP ratio z-score vs DMSO controls)” has its median near 0.25; the highest 2% begin near 1.9. This is one part of the list.
# System: ppGalNAc-T3 sensor
# Assay: T3 sensor activation Q score (MG/GFP ratio z-score vs DMSO controls) (SD units); higher = more sensor activation (inhibition of ppGalNAc-T3 glycosylation)
# Details: HEK293 sensor cells; 10 µM; 6 h
# Experimental: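 Cells were treated with compound at 10 uM for 6 h, then MG/GFP ratio was read by flow cytometry (10,000 cells per well, duplicate wells). Q = (R - R_neg)/SD_neg relative to DMSO vehicle controls; the signal rises when the glycosyltransferase is inhibited.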
row,Structure (SMILES),T3 sensor activation Q score
1,COc1c2occc2cc2ccc(=O)oc12,0.85
2,Cn1ncc2c(=O)[nH]c(N)nc21,1.6
3,CC(C)=C(c1ccc(Cl)cc1)c1c(N)ncnc1N,-0.25
4,COc1cc2c(cc1OC)[N+]([O-])=C(c1ccccc1)C2=O,0.9
5,Cn1cnc([N+](=O)[O-])c1Sc1nnc(-c2cccnc2)n1C,-0.4
6,COc1ccccc1N=NNc1ccccc1OC,-0.1
7,N#Cc1ccc(C(c2ccc(C#N)cc2)n2cncn2)cc1,0.15
8,NC(=O)c1ccc2c(c1)S(=O)(=O)c1ccccc1C2=O,1.25
9,COC(=O)Cc1[nH]c(Cl)nc1C(N)=O,-1.15
10,CC1=C(C#N)C(C)(C)C(C#N)=C(C)N1,1.5
11,COc1ccc(C(=O)Oc2ccc[nH]c2=O)cc1,-0.9
12,O=C(O)c1ccc(O)c(O)c1,-0.75
13,CCCCCCCCCCCCC(NC(C)=O)(C(=O)OCC)C(=O)OCC,0.1
14,CCN(CC)CCNC(=O)C(Cl)=C1C(Cl)=C(Cl)C(Cl)=C1Cl,-0.2
15,CCOC(=O)c1cc2c(OC)c(OC)ccc2c2[nH]cc(C#N)c(=O)c12,0.7
16,O=C(O)/C=C/C(=O)N1Cc2cc3ccccc3nc2C1,-0.05
17,Cn1c(=O)c2[nH]c(CNc3ccc(C(=O)O)cc3)nc2n(C)c1=O,-0.05
18,Cc1cnc(SCc2ccc(Cl)cc2Cl)[nH]c1=O,-0.3
19,CC(=O)C1C=CC(C)(C(=O)O)C2C=C(C)C(=O)C(C)(O)C12 (stereo not given),1.45
20,COc1ccc2nc3cc(Cl)ccc3c(Nc3cc(C(C)C)c(O)cc3C)c2c1,0.65
21,Nc1cc([N+](=O)[O-])ccc1Nc1ccc(O)cc1,0.9
22,COc1c(O)ccc2c1CN1CCc3cc4c(cc3C1C2)OCO4 (stereo not given),0.1
23,Nc1ccc(/C=C/c2ccc3ncccc3c2)cc1,0.55
24,O=C(O)c1nc2nc(Cl)c(Cl)nc2[nH]1,0.1
25,Cc1[nH]ccc2c1[nH]c1cc(=O)ccc12,-0.35

row,Structure (SMILES),T3 sensor activation Q score
1,Cn1c(CO)cnc1-c1ccccc1,0.3
2,CC1(C)C2CCC(CN=C(N)CSS(=O)(=O)O)C1C2 (stereo not given),1.1
3,CC1=NCC(C)c2ccccc21 (stereo not given),1.3
4,COc1cc2oc3cc(C)oc(=O)c3c2cc1OC,-0.8
5,COc1cc(C(=O)c2cocc2C(=O)c2ccc3c(c2)OCO3)cc(OC)c1OC,0.55
6,Nc1ccc(SCc2nc3cccc4c3n2CCC4)cc1,-0.1
7,COc1cccc2nc3cc(C)c(C)cc3nc12,0.25
8,CCN1CCC(Nc2ccnc3cc(Cl)ccc23)CC1,1.3
9,CC(=O)Nc1ccc(OCCOc2ccc([N+](=O)[O-])cc2)cc1,1.6
10,O=c1cc(-c2ccccc2)nc2cc(-c3ccco3)[nH]n12,0.35
11,CN(C)c1ccc(C(c2ccc(N(C)C)cc2)c2ccc([N+](=O)[O-])cc2)cc1,0.2
12,COc1ccc2c3c([nH]c2c1)[C@H]1C[C@H]2[C@H](C[C@@H](O)[C@H](OC)[C@H]2C(=O)O)CN1CC3,-0.25
13,CCCCC(=O)N(CCC)CCC,0.1
14,NC(N)=NS(=O)(=O)c1ccc(N=C2C(=O)Nc3ccccc32)cc1,0.3
15,CCC(CO)Nc1nc2ccc(Cl)cc2c2ccccc12 (stereo not given),0.85
16,O=C(Nc1ccsn1)c1ccc(Cl)cc1Cl,0.55
17,Cc1cc(=O)n2c3c(c4c(cc13)c(CN(C)C)cc(=O)n4C)OC2,1
18,Oc1cccc2cnccc12,1.35
19,CCOC(=O)C1CC(C)=C(C)CC1C(=O)O (stereo not given),1.5
20,CC(=O)Nc1cccc(-n2c(=O)n(C3CC3)c(=O)c3c(Nc4ccc(I)cc4F)n(C)c(=O)c(C)c32)c1,-0.9
21,CSc1cccc(NC(=O)Nc2ccccc2C(N)=O)c1,0.9
22,Cc1c(-c2ccccc2)n(O)[n+]([O-])c1-c1ccccc1,0.7
23,COc1cc(C(O)c2nc3ccccc3s2)cc(OC)c1OC (stereo not given),-0.9
24,CCOC(=O)/C=C/c1ccc(C(=O)OCC)[nH]1,-1.5
25,O=C1CCCC1C(=O)Nc1ccc2ccccc2c1 (stereo not given),0

row,Structure (SMILES),T3 sensor activation Q score
1,COC(=O)C1(C)Cc2cc(OC(C)=O)c(OC(C)=O)cc2N1 (stereo not given),0.15
2,CN1CCN(C(=O)/C=C/c2ccc([N+](=O)[O-])o2)CC1,0.65
3,N#C/C(=C\c1cccnc1)c1ccc(Br)cc1,-1
4,Clc1nc2nc3n(c2nc1Cl)CCC3,0
5,CN(C)CC1C2CCC(C2)C1O (stereo not given),0.4
6,CCOC(=O)Nc1ccc2nc(Sc3ccc(Cl)cc3)sc2c1,0.55
7,COc1cc(C2NC(=O)C(C#N)=C(Nc3cccc(C)c3)S2)ccc1O (stereo not given),1.6
8,Cc1ccc(Nc2ccc(N)cc2S(=O)(=O)O)cc1,0.1
9,N=C1CCC(=N)c2c1c(O)c1ccccc1c2O,0
10,CC(=O)Nc1ccc(OC(=O)Oc2ccc(NC(C)=O)cc2)cc1,0.05
11,CCCCn1cnc2c(=S)nc(N)[nH]c21,-0.25
12,COc1ccc2c3c1OC1CC(O)C=CC31CCN(C)C2 (stereo not given),1.1
13,Cc1cc(NC(=O)NC(=O)c2ccccc2NC(=O)C(C)N)ccc1Oc1ncc(Br)cn1 (stereo not given),4.35
14,O=C(Nc1cccc(-c2ccccc2)c1)N1CCN(C(=O)Nc2cccc(-c3ccccc3)c2)CC1,1.1
15,CC#CC#Cc1cccc(=O)o1,-1.7
16,CC(O)(c1ccccc1)C(c1ccccc1)C1CCCCN1 (stereo not given),1.3
17,O=c1[nH]cc(Cl)cc1Cl,0.85
18,CC(C)C(=O)Nc1cccnc1,-1.45
19,CC(=O)c1cc(O)c2ccccc2c1O,0.45
20,CC(=O)Nc1ccc(S(=O)(=O)N=S(C)C)cc1,1.8
21,NC(=O)c1nnsc1-c1ccc(-c2snnc2C(N)=O)cc1,0.15
22,CC1(C)N=C(N)NC(=NCCCOc2ccc([N+](=O)[O-])cc2)N1,0.35
23,C=C(C)CN1C(=O)C(C)S/C1=N/N=C1/SCC(=O)N1C (stereo not given),1.2
24,CCOC(=O)CSc1nc2nc(Cl)c(Cl)nc2[nH]1,-0.2
25,Oc1ccc2ccccc2c1N=Nc1nccs1,-2.1

# Reformatted bar-delimited: entries from further up.
row | Structure (SMILES) | T3 sensor activation Q score
22 | COc1c(O)ccc2c1CN1CCc3cc4c(cc3C1C2)OCO4 (stereo not given) | 0.1
10 | CC(=O)Nc1ccc(OC(=O)Oc2ccc(NC(C)=O)cc2)cc1 | 0.05

# Going on with the list.

row,Structure (SMILES),T3 sensor activation Q score
1,COC(=O)Nc1csc2c1NC(=O)CCCC2,0.45
2,CCc1ccc(CCN2C(=O)c3ccccc3C2=O)nc1,0.1
3,Clc1ccc(Oc2nc3c(Cl)cccc3s2)cc1Cl,-0.35
4,Nc1n[nH]c(CO)n1,1.4
5,Cc1cc(C)n2c(C)nnc2c1,1.85
6,CC(=O)NC1=C/C(=C\[N+](=O)[O-])C=C1O,-0.9
7,COc1c(/C=N/NC(N)=O)c(OC)c(OC)c2c1CCO2,1.45
8,Nc1ccc(C(=O)C(=O)c2ccc(N)cc2)cc1,-0.25
9,CCOC(=O)/C(C#N)=C/c1c[nH]c2ccccc12,-0.4
10,COc1cccc(/C=C2\CCc3ccccc3C2=O)c1,-0.1
11,O=C(Nc1ccc(Br)c2ccccc12)c1ccc2ccccc2c1O,0.75
12,CC(=O)OCCN1c2ccccc2Sc2cnccc21,0.85
13,NS(=O)(=O)c1ccc(N=Nc2ccc(=O)[nH]c2O)cc1,1.15
14,O=C1OCC/C1=C\OCCCO/C=C1\CCOC1=O,-0.7
15,Cc1ccc(NC(=O)Nc2nc3ccccc3s2)cc1NC(=O)Nc1nc2ccccc2s1,0.75
16,COc1cc(-c2ccc(NC(=O)NC3CC3)c(OC)c2)ccc1NC(=O)NC1CC1,0.2
17,CC1=C(C(N)=O)S(=O)(=O)c2ccccc21,0.7
18,Nc1ccc(-c2nc3nc(N)nc(N)c3nc2-c2ccc(N)cc2)cc1,-0.1
19,CC(C)(C)n1nc(C2CC2)cc1NC(=O)Nc1ccccc1,0.25
20,O=C(O)c1cc2ccccc2cc1Nc1ccccc1,0.75
21,CC1(C)N=C(N)N=C(N)N1c1cccc(CN)c1,0.1
22,CCCCCC(=O)N1CCCC1,-0.1
23,CC(C)(NC(=O)c1cc(Cl)c2ccccc2c1O)C(=O)O,-0.5
24,CS(=O)(=O)c1ccc(C(=O)Nc2ccc(Cl)c(-c3ccccn3)c2)c(Cl)c1,0.3
25,COc1ccc(N=Cc2c(O)ccc3c2oc2cc(Cl)c(O)c(Cl)c23)cc1,0.55

# Looked up above:
# T3 sensor activation Q score, `COc1cc(C(O)c2nc3ccccc3s2)cc(OC)c1OC` (stereo not given) reads -0.9
# T3 sensor activation Q score, `Nc1ccc(/C=C/c2ccc3ncccc3c2)cc1` reads 0.55
# T3 sensor activation Q score, `Cn1cnc([N+](=O)[O-])c1Sc1nnc(-c2cccnc2)n1C` reads -0.4
# T3 sensor activation Q score, `Cc1[nH]ccc2c1[nH]c1cc(=O)ccc12` reads -0.35

# (next part)

row,Structure (SMILES),T3 sensor activation Q score
1,CC(=O)NS(=O)(=O)c1ccc2sc(C)nc2c1,0.15
2,CC(C)C[C@H](NC(=O)[C@H](Cc1ccccc1)NC(=O)c1cnccn1)B(O)O,-0.85
3,C=CCNC(=S)Nc1c(N)n(C)c(=O)n(C)c1=O,0.75
4,Oc1ccccc1Nc1ccccn1,1.75
5,N=c1ccn2c(n1)O[C@H]1[C@H](O)[C@@H](CO)O[C@H]12,-1.6
6,Brc1ccc(-c2csc(Nc3nc(-c4ccc(Br)cc4)cs3)n2)cc1,1
7,O=c1[nH]cc(F)c(=O)[nH]1,0.75
8,Cc1nc2ccccc2c(N)c1-c1cc(C)c2c(C)nc3ccccc3c2n1,1.75
9,CCCCC(=O)OCC(=O)[C@]1(O)Cc2c(O)c3c(c(O)c2[C@@H](O[C@H]2C[C@H](NC(=O)C(F)(F)F)[C@H](O)[C@H](C)O2)C1)C(=O)c1c(OC)cccc1C3=O,-0.8
10,COc1ccc2c3c([nH]c2c1)[C@H]1C[C@H]2[C@H](C[C@@H](O)[C@H](OC)[C@H]2CO)CN1CC3,-0.05
11,O=C1OC(Cc2ccccc2)C(c2ccccc2)C1=O (stereo not given),0.75
12,O=C(Nc1ccc2ccccc2c1)c1cccc(F)c1,-0.45
13,CCNC(=O)Oc1ccc[nH]c1=O,-0.25
14,O=C(Nc1ccc(O)c(C(=O)O)c1)Oc1ccccc1,0.9
15,COc1cccc(-c2nnc(N)o2)c1,0.65
16,C[C@H](CCC(=O)O)[C@H]1CC[C@@]2(C)[C@@H]3C(=O)C[C@H]4C(C)(C)[C@@H](O)CC[C@]4(C)[C@H]3C(=O)C[C@]12C,-0.35
17,CCOC(=O)c1c(C)c(C(=O)OCC)n(C)c1C,1.8
18,O=S(=O)(c1ccc2c(c1)CCCN2)N1CCC[C@H]2CCCC[C@@H]21,0.2
19,CCOC(CNCc1cc(C)c2[nH]c3ccccc3c2c1C)OCC,0.05
20,[O-]/[N+](=C\c1ccccc1)CC1(O)CCCCC1,-0.85
21,CCCOc1nc2c(c(=O)n(C)c(=O)n2C)n1C,1.2
22,OCc1ncccc1O,-0.75
23,Nc1nnc(-c2cccnc2)s1,-0.3
24,C#CC1(O)CCC2C3CCC4=Cc5oncc5CC4(C)C3CCC21C (stereo not given),0.1
25,Cc1ccc(C(N)=Nc2ccccc2)cc1,-0.05
